This passage reports AC50 results from PubChem BioAssay AID1487 (National Center for Advancing Translational Sciences (NCATS), 2009).

The structures appear in SMILES notation. Some of the results follow. The main result of the screen is listed elsewhere. These columns were measured beside it and carry no call. Compounds called inactive in the main read-out are mostly missing here. Words in brackets tell the shape of the fitted curve; partial curves, single points and poor fits give uncertain potencies.

This experiment can be described thus: qHTS Assay for Modulators of Lamin A Splicing. As to conditions: HeLa LMNA splicing GFP/RFP minigene ratio, 48 h. A digest of the protocol: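 Read-out is the ratio of GFP to DsRed2 object intensity, acquired by 488 nm laser-scanning cytometry on HeLa lamin A-EGFP minigene reporter cells. Compound incubation 48 hrs at 37 °C in Opti-MEM with 2% FBS; DMSO 0.5% final.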
On the technique in general: qHTS replaces the single test concentration by a dilution series.

[1] abbreviates: measured here: RFP viability control channel.
Setting [2] is: measured here: GFP splicing reporter channel.

The term AC50 denotes the midpoint of the concentration-response curve, whichever way the signal moves. Regarding `CCOC(=O)C1C(=O)NC(SCC(N)=O)=C(C#N)C1c1ccccc1OCC` (configuration not stated), the half-maximal activity concentration (AC50) under setting [1] is 0.891 µM [falling, full curve, poor fit].
As for `COc1ccc(CCn2c(=O)[nH]c3cc(C(=O)N4CCN(c5ccccc5)CC4)ccc3c2=O)cc1OC`, the AC50 runs as follows: under setting [2], 0.316 µM [falling, full curve, poor fit]; under setting [1], 8.91 µM [falling, partial curve, poor fit].
In the case of `CCOC(=O)N1CCN(C(=O)C2CCN(S(=O)(=O)c3ccc(OC)cc3)CC2)CC1`, the AC50 runs as follows: under setting [2], 0.00447 µM [falling, full curve, poor fit]; under setting [1], 0.00501 µM [falling, full curve, poor fit].
As for `Cc1ccc(-n2c(C)nn(Cc3ccc([N+](=O)[O-])cc3)c2=O)cc1`, under setting [1], the AC50 is 1.12 µM [falling, partial curve, poor fit].
As for `CCC(C)(C)n1nnnc1C(c1cc2ccc(C)cc2[nH]c1=O)N(Cc1cccnc1)Cc1ccco1` (configuration not stated), the half-maximal activity concentration (AC50) under setting [1] was 35.5 µM [falling, single point].
On to `Cc1cccc(CNc2nc(-c3c(C)noc3C)nc3ccccc23)c1`, for which the AC50 reads like this: under setting [2], 35.5 µM [falling, single point]; under setting [1], 35.5 µM [falling, single point].
Regarding `CC1=C(c2ccc(C)cc2)S(=O)(=O)N(Cc2ccc(C(=O)Nc3ccccc3C)cc2)C1=O`, under setting [1], the AC50 was 10 µM [rising, partial curve, poor fit].
`COc1ccc(-c2csc(N3CCC(C(N)=O)(N4CCCCC4)CC3)n2)cc1`: under setting [1], the AC50 is 35.5 µM [rising, single point].
Regarding `O=c1[nH]c2ccccc2c(O)c1SCCO`, under setting [2], the AC50 was 5.62 µM [rising, single point].
Regarding `Cc1nc2ccccc2cc1OCc1ccc(F)cc1`, the AC50 by setting is: under setting [2], 10 µM [rising, partial curve, poor fit]; under setting [1], 7.94 µM [rising, partial curve].
Regarding `C/C=C/c1ccc(OCCCCNCc2ccco2)c(OC)c1`, under setting [2], the AC50 is 2.51 µM [falling, partial curve].
For `Cc1ccc(S(=O)(=O)c2cc3ccccc3oc2=Nc2ccc3c(c2)OCCO3)cc1`, the AC50 under setting [2] is 11.2 µM [rising, single point].
Take `Cc1ccc(Nc2nnc(C3C(=O)N(C)C4(C)CC3c3cc(Br)ccc3O4)s2)cc1` (configuration not stated): under setting [1], the AC50 is 6.31 µM [rising, full curve, poor fit].
For `COc1ccc(/C=C/C(=O)c2cc(F)ccc2OC(=O)c2ccccc2C)cc1OC`, the AC50 reads like this: under setting [2], 2.24 µM [rising, full curve]; under setting [1], 2.51 µM [rising, partial curve].
As to `COc1ccc(NC(=O)c2c(-c3ccccc3Cl)noc2C)c(OC)c1`, the AC50 under setting [1] is 10 µM [rising, partial curve, poor fit].
In the case of `O=C(/C=C\C=C/c1ccc2c(c1)OCO2)N1CCCCC1`, the half-maximal activity concentration (AC50) is 0.282 µM [falling, full curve] under setting [2] and 0.631 µM [falling, full curve, poor fit] under setting [1].
Turning to `CCOC(=O)CN1C(=O)Nc2ccc(Br)cc2C1c1ccccc1` (configuration not stated), the AC50 under setting [2] is 0.0158 µM [rising, full curve, poor fit].
For the compound `CC(C)CCNC(=O)c1ccc(OC2CCN(S(=O)(=O)N(C)C)CC2)cc1`, the AC50 is, setting by setting: under setting [2], 12.6 µM [falling, partial curve]; under setting [1], 20 µM [falling, partial curve, poor fit].
For `O=C(OCn1ncc(Cl)c(Cl)c1=O)c1ccc(F)cc1`, the AC50 is 6.31 µM [falling, full curve] under setting [2] and 3.98 µM [falling, full curve] under setting [1].
For `COc1ccccc1N1CCN(C(=O)CCc2c[nH]c3ccccc23)CC1`, the AC50 runs as follows: under setting [2], 0.00316 µM [falling, full curve, poor fit]; under setting [1], 0.00708 µM [falling, full curve].
With `CC(O)CNCCCCOc1ccc(OCc2ccccc2)cc1` (configuration not stated), the AC50 under setting [2] was 12.6 µM [falling, partial curve, poor fit].
For `O=C(Nc1ccc(Cl)cc1)c1cc(S(=O)(=O)N2CCOCC2)cs1`, the AC50 under setting [1] is 12.6 µM [rising, partial curve].
On the same count and under the same terms, the figure for `COC(=O)c1ccccc1NC(=O)CSc1nnnn1-c1ccc(C)cc1C` is 12.6 µM [rising, single point].
`Cc1ccc(Nc2cc(C)nc(N3CCOCC3)n2)cc1`: the AC50 by setting is: under setting [2], 0.794 µM [falling, full curve]; under setting [1], 0.794 µM [falling, full curve].
For the compound `O=C(C1CCCN(S(=O)(=O)c2cccc3nonc23)C1)N1CCN(c2ccccc2Cl)CC1` (configuration not stated), the AC50 was 11.2 µM [rising, partial curve] under setting [2] and 22.4 µM [rising, single point] under setting [1].
Consider `O=C(c1nc2ccccn2c1CN1CCN(c2ccccc2O)CC1)N1CCCC1`, for which, under setting [1], the AC50 was 7.08 µM [falling, full curve, poor fit].
As to `CCOC(=O)C1(Cc2ccccc2C)CCCN(C(=O)CCc2cccnc2)C1` (configuration not stated), the AC50 under setting [2] is 0.00447 µM [rising, full curve, poor fit].
Regarding `CCn1c(CNc2ccc(F)cc2)nnc1SCC(=O)N1CCCc2ccccc21`, the AC50 under setting [1] was 12.6 µM [rising, single point].
In the case of `CCN(CC)C(=S)SCC(=O)c1ccc(Br)cc1`, the AC50 under setting [1] was 35.5 µM [rising, single point].
The same measure, in the same setting: under `O=c1nc(-c2ccccc2)n(-c2ccccc2)[nH]1` stands 35.5 µM [rising, single point].
As for `Cc1ccc(S(=O)(=O)N(CC(=O)N=Nc2c(O)[nH]c3ccccc23)c2cccc(C)c2)cc1`, the AC50 is, setting by setting: under setting [2], 11.2 µM [falling, partial curve]; under setting [1], 15.8 µM [falling, single point].
Take `OC(COCc1ccc2c(c1)OCO2)CN1CCN(Cc2ccccc2)CC1` (configuration not stated): the AC50 under setting [1] was 0.316 µM [falling, partial curve].
For the compound `CC(C)Oc1cccc(C(=O)Nc2ccc(CN3CCOCC3)cc2)c1`, under setting [1], the AC50 was 12.6 µM [rising, partial curve, poor fit].
Consider `CCOC(=O)C1CCN(C(=O)Cc2c(C(=O)O)n(C)c3ccccc23)CC1`, for which the AC50 is, setting by setting: under setting [2], 5.62 µM [rising, single point]; under setting [1], 5.62 µM [rising, single point].
Turning to `Cc1nnc(SCc2cc(=O)n3cccc(C)c3n2)s1`, the AC50 under setting [2] is 0.708 µM [rising, partial curve, poor fit].
On to `CC(=O)C1=C(C)NC(=O)CC1c1ccc(Br)cc1` (configuration not stated), for which the AC50 under setting [1] was 0.0398 µM [falling, full curve, poor fit].
With `Clc1ccc(Cn2nc(-c3ccccc3)nc2-c2ccccc2)cc1`, under setting [1], the AC50 is 25.1 µM [rising, single point].
As to `CC(C)C(c1nnnn1C(C)(C)C)N1CCC(Cc2ccccc2)CC1` (configuration not stated), the AC50 was 10 µM [rising, partial curve] under setting [2] and 11.2 µM [rising, single point] under setting [1].
For `CSc1ccc(OC2CCCCC2NS(=O)(=O)c2ccccc2)cc1` (configuration not stated), the concentration at half-maximal activity (AC50) under setting [1] was 15.8 µM [rising, single point].
With `CCCC(CCC)C(=O)Nc1cccc(-c2nc3cccnc3s2)c1C`, the AC50 by setting is: under setting [2], 4.47 µM [falling, partial curve]; under setting [1], 0.112 µM [falling, full curve, poor fit].
With `COc1ccc(-c2nc(C(N)=O)c3[nH]c(=O)n(-c4cccc(Cl)c4)c3n2)cc1OC`, the AC50 is 35.5 µM [falling, single point] under setting [2] and 35.5 µM [falling, single point] under setting [1].
As to `O=c1c(O)c(-c2ccc(O)c(O)c2)oc2cc(O)ccc12`, the AC50 by setting is: under setting [2], 12.6 µM [falling, single point]; under setting [1], 22.4 µM [falling, partial curve].
`CCN(CC)CCC[C@H](C)Nc1c2ccc(Cl)cc2nc2ccc(OC)cc12`: the AC50 is, setting by setting: under setting [2], 14.1 µM [falling, single point]; under setting [1], 8.91 µM [falling, single point].
As to `Cc1nc2ccn(Cc3ccco3)c(=O)c2cc1C(=O)NCc1ccccc1F`, the half-maximal activity concentration (AC50) under setting [1] is 0.501 µM [rising, full curve].
In the case of `COc1cccc(NC(=O)c2cc(C(=O)Nc3cccc(OC)c3)n(C)n2)c1`, under setting [1], the AC50 is 3.55 µM [rising, single point].
`Cn1cc(Br)c(C(=O)NC2C3CC4CC(C3)CC2C4)n1` (configuration not stated): the AC50 under setting [1] was 35.5 µM [rising, single point].
As for `O=S(=O)(Nc1nc2ccccc2nc1Nc1ccc(N2CCOCC2)cc1)c1cc(Cl)ccc1Cl`, the AC50 was 3.16 µM [rising, single point] under setting [2] and 3.55 µM [rising, single point] under setting [1].
Turning to `COc1ccc(N2C(=O)CC(NNC(=O)c3ccco3)C2=O)cc1` (configuration not stated), the AC50 is, setting by setting: under setting [2], 5.62 µM [rising, partial curve]; under setting [1], 5.62 µM [rising, partial curve].
On to `O=C(NCCC1=CCCCC1)C(=O)NCC1OCCCN1S(=O)(=O)c1ccccc1` (configuration not stated), for which the AC50 under setting [1] is 35.5 µM [rising, single point].
Consider `COc1ccc(NS(=O)(=O)c2ccc3c(c2)CCC(=O)N3)c(OC)c1`, for which the AC50 under setting [2] was 20 µM [rising, partial curve, poor fit].
In the case of `c1ccc(OCc2nn3c(-c4ccccn4)nnc3s2)cc1`, the AC50 by setting is: under setting [2], 17.8 µM [rising, single point]; under setting [1], 25.1 µM [rising, single point].
`O=C(Nc1ccc(-c2nnc(-c3ccccc3)o2)cc1)C1CCCO1` (configuration not stated): the AC50 under setting [1] was 0.224 µM [falling, full curve, poor fit].
Consider `CCN(CC)c1ccc(-n2c(C)c(C(C)=O)c(C(C)=O)c2C)cc1`, for which the AC50 by setting is: under setting [2], 15.8 µM [rising, partial curve]; under setting [1], 15.8 µM [rising, partial curve].
`Cn1c(C(=O)N2CCCc3ccccc32)cc2sccc21`: the half-maximal activity concentration (AC50) was 0.316 µM [rising, full curve, poor fit] under setting [2] and 0.251 µM [rising, full curve, poor fit] under setting [1].
